# Experimental data reported in US20080146606A1, “NOVEL COMPOUNDS” (priority 2006, published 2008).
# Structures can show the parent of a compound that is named as a salt. Some results were stated once for a whole list of compounds, not compound by compound.
# Target: T1, Recombinant human IKKβ (residues 5-756) (Homo sapiens, UniProt O14920)
# T1 construct: Recombinant human IKKβ (residues 5-756); GST (C); made in house
# T1 sequence (O14920 5-756): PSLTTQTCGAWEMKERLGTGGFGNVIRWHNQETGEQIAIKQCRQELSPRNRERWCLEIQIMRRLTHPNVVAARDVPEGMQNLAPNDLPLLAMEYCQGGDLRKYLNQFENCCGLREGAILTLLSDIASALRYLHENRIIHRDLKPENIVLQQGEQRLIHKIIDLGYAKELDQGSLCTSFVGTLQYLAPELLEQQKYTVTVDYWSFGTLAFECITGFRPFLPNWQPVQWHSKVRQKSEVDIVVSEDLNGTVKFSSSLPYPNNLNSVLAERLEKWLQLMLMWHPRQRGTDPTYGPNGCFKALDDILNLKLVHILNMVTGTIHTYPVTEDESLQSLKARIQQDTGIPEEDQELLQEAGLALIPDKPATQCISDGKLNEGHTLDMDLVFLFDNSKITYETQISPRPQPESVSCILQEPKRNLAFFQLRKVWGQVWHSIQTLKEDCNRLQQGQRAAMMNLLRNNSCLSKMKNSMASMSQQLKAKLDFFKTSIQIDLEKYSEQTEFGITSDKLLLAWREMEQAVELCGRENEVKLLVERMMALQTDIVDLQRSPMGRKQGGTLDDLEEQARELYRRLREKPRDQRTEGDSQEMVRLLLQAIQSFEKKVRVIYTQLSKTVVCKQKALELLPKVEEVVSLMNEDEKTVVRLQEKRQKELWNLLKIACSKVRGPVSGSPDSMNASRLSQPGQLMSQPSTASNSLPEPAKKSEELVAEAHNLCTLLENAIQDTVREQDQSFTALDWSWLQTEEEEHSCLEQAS
# Assay: IKK2 assay (TR-FRET)
# Assay type: biochemical
row,Structure (SMILES),pIC50 potency against IKK2
1,"CC(C)NC(=O)Cc1cc2c(-c3ccc(NS(C)(=O)=O)cc3)ccnc2[nH]1 [Example 138, N-(1-Methylethyl)-2-(4-{4-[(methylsulfonyl)amino]phenyl}-1H-pyrrolo[2,3-b]pyridin-2-yl)acetamide trifluoroacetate]",≥ 5.0
2,"CC(O)c1cc2c(-c3ccc(S(=O)(=O)NCCN)cc3)ccnc2[nH]1.O=C(O)C(F)(F)F (stereo not drawn) [Example 99, N-(2-aminoethyl)-4-[2-(1-hydroxyethyl)-1H-pyrrolo[2,3-b]pyridin-4-yl]benzenesulfonamide trifluoroacetate]",≥ 5.0
3,"Cc1cc2c(-c3ccc(S(=O)(=O)NCC(C)(C)O)cc3)ccnc2[nH]1 [Example 204, N-(2-hydroxy-2-methylpropyl)-4-(2-methyl-1H-pyrrolo[2,3-b]pyridin-4-yl)benzenesulfonamide]",≥ 5.0
4,"Cc1cc2c(-c3ccc(S(=O)(=O)N[C@H]4CCC[C@@H]4O)cc3)ccnc2[nH]1 [Example 242, N-[(1S,2S)-2-hydroxycyclopentyl]-4-(2-methyl-1H-pyrrolo[2,3-b]pyridin-4-yl)benzenesulfonamide]",≥ 5.0
5,"Cc1cc2c(-c3ccc(S(=O)(=O)N[C@H]4CCC[C@H]4O)cc3)ccnc2[nH]1.O=C(O)C(F)(F)F [Example 88, N-[(1S,2R)-2-hydroxycyclopentyl]-4-(2-methyl-1H-pyrrolo[2,3-b]pyridin-4-yl)benzenesulfonamide trifluoroacetate]",≥ 5.0
6,"CN(C)Cc1cc2c(-c3ccc(S(=O)(=O)NC4CCCCC4)cc3)ccnc2[nH]1 [Example 259, N-cyclohexyl-4-{2-[(dimethylamino)methyl]-1H-pyrrolo[2,3-b]pyridin-4-yl}benzenesulfonamidetrifluoroacetate]",≥ 5.0
7,"Cc1cc2c(-c3ccc(S(=O)(=O)N[C@@H]4CCCC[C@H]4O)cc3)ccnc2[nH]1 [Example 244, N-[(1R,2R)-2-hydroxycyclohexyl]-4-(2-methyl-1H-pyrrolo[2,3-b]pyridin-4-yl)benzenesulfonamide]",≥ 5.0
8,"Cc1cc2c(-c3ccc(S(=O)(=O)N[C@@H]4CCC[C@H]4O)cc3)ccnc2[nH]1 [Example 243, N-[(1R,2R)-2-hydroxycyclopentyl]-4-(2-methyl-1H-pyrrolo[2,3-b]pyridin-4-yl)benzenesulfonamide]",≥ 5.0
9,"CC(C)(C)c1cc2c(-c3ccc(S(=O)(=O)NCCO)cc3)ccnc2[nH]1.O=C(O)C(F)(F)F [Example 110, 4-[2-(1,1-dimethylethyl)-1H-pyrrolo[2,3-b]pyridin-4-yl]-N-(2-hydroxyethyl)benzenesulfonamide trifluoroacetate]",≥ 5.0
10,"Cc1cc2c(-c3ccc(S(=O)(=O)N[C@H]4CCCC[C@H]4O)cc3)ccnc2[nH]1 (relative stereo) [Example 245, rel-N-[(1R,2S)-2-hydroxycyclohexyl]-4-(2-methyl-1H-pyrrolo[2,3-b]pyridin-4-yl)benzenesulfonamide]",≥ 5.0
11,"O=C(O)C(F)(F)F.O=S(=O)(c1ccc(-c2ccnc3[nH]c(Cn4ccc(-c5cccs5)n4)cc23)cc1)N1CCCC1 [Example 51, 4-[4-(1-pyrrolidinylsulfonyl)phenyl]-2-{[3-(2-thienyl)-1H-pyrazol-1-yl]methyl}-1H-pyrrolo[2,3-b]pyridine trifluoroacetate]",≥ 5.0
12,"CN(CCCN)S(=O)(=O)c1ccc(-c2ccnc3[nH]c(C(F)F)cc23)cc1 [Example 179, N-(3-aminopropyl)-4-[2-(difluoromethyl)-1H-pyrrolo[2,3-b]pyridin-4-yl]-N-methylbenzenesulfonamidetrifluoroacetate]",≥ 5.0
13,"O=C(O)C(F)(F)F.O=S(=O)(c1ccc(-c2ccnc3[nH]c(Cn4ccnc4Cc4ccccc4)cc23)cc1)N1CCCC1 [Example 47, 2-{[2-(phenylmethyl)-1H-imidazol-1-yl]methyl}-4-[4-(1-pyrrolidinylsulfonyl)phenyl]-1H-pyrrolo[2,3-b]pyridine trifluoroacetate]",≥ 5.0
14,"CC(C)c1nccn1Cc1cc2c(-c3ccc(S(=O)(=O)N4CCCC4)cc3)ccnc2[nH]1.O=C(O)C(F)(F)F [Example 46, 2-{[2-(1-methylethyl)-1H-imidazol-1-yl]methyl}-4-[4-(1-pyrrolidinylsulfonyl)phenyl]-1H-pyrrolo[2,3-b]pyridine trifluoroacetate]",≥ 5.0
15,"O=C(O)C(F)(F)F.O=S(=O)(c1ccc(-c2ccnc3[nH]c(Cn4ccnn4)cc23)cc1)N1CCCC1 [Example 50, 4-[4-(1-pyrrolidinylsulfonyl)phenyl]-2-(1H-1,2,3-triazol-1-ylmethyl)-1H-pyrrolo[2,3-b]pyridine trifluoroacetate]",≥ 5.0
16,"CN(C1CCCC1)S(=O)(=O)c1ccc(-c2ccnc3[nH]c(C(F)F)cc23)cc1 [Example 176, N-cyclopentyl-4-[2-(difluoromethyl)-1H-pyrrolo[2,3-b]pyridin-4-yl]-N-methylbenzenesulfonamidetrifluoroacetate]",≥ 5.0
17,"Cc1cc2c(-c3ccc(S(=O)(=O)N[C@H]4CCCC[C@@H]4O)cc3)ccnc2[nH]1.O=C(O)C(F)(F)F [Example 87, N-[(1S,2S)-2-hydroxycyclohexyl]-4-(2-methyl-1H-pyrrolo[2,3-b]pyridin-4-yl)benzenesulfonamide trifluoroacetate]",≥ 5.0
18,"CN(CCO)S(=O)(=O)c1ccc(-c2ccnc3[nH]c(C(F)F)cc23)cc1 [Example 171, 4-[2-(difluoromethyl)-1H-pyrrolo[2,3-b]pyridin-4-yl]-N-(2-hydroxyethyl)-N-methylbenzenesulfonamidetrifluoroacetate]",≥ 5.0
19,"C[C@@H](O)CNS(=O)(=O)c1ccc(-c2ccnc3[nH]c(C4CC4)cc23)cc1 [Example 196, 4-(2-cyclopropyl-1H-pyrrolo[2,3-b]pyridin-4-yl)-N-[(2R)-2-hydroxypropyl]benzenesulfonamide]",≥ 5.0
20,"Cc1cc2c(-c3ccc(S(=O)(=O)N(C)C)cc3)ccnc2[nH]1 [Example 170, N,N-dimethyl-4-(2-methyl-1H-pyrrolo[2,3-b]pyridin-4-yl)benzenesulfonamidetrifluoroacetate]",≥ 5.0
21,"C[C@H](O)CNS(=O)(=O)c1ccc(-c2ccnc3[nH]c(C4CC4)cc23)cc1 [Example 208, 4-(2-cyclopropyl-1H-pyrrolo[2,3-b]pyridin-4-yl)-N-[(2S)-2-hydroxypropyl]benzenesulfonamidetrifluoroacetate (salt)]",≥ 5.0
